Measured values as given in PubChem BioAssay AID330 (DTP/NCI, 2004).
The list does not hold the whole screen: it is rich in T/C values a quarter to a half above the control, in often repeated tests (any T/C) and in doses without a T/C. Other doses and runs of a compound stand elsewhere. T/C is the treated group as % of the vehicle group. Some entries give survivors of the animals treated and no T/C: the source holds a T/C of zero for them, seemingly a mark for toxic or unscored doses. Some doses without a T/C left all or most animals alive at the check, yet need not have been tolerated: the source hardly ever lists a survival T/C far under the control, and the zero likely stands for such cases as well. Survivors were counted at the toxicity check, usually on the fifth day, unless a day is given; later deaths do not show. Schedule codes are those of the source, taken here to give the interval after Q, in days (D) or hours (H), and the number of doses after X. Where survival is the endpoint, the PubChem record calls one and a half times the control and up active, and a quarter to a half above the control has no call in these data; cut-offs in other NCI protocols can differ. Some doses were run more than once; the values are given in rising order.

System: P388 leukemia ip, CD2F1 mice, survival T/C
Experiment: NCI In Vivo Anticancer Drug Screen. Data for tumor model P388 Leukemia (intraperitoneal) in CD2F1 (CDF1) mice
Settings: T/C endpoint: median survival time, higher T/C = longer survival
[1] = dose: 240.0 mg/kg/injection, schedule: Q01DX005 (ip), vehicle: saline with Tween-80
[2] = dose: 100.0 mg/kg/injection, schedule: Q01DX005 (ip), vehicle: Klucel (hydroxypropylcellulose) (HPC)
[3] = dose: 200.0 mg/kg/injection, schedule: Q01DX005 (ip), vehicle: Klucel (hydroxypropylcellulose) (HPC)
[4] = dose: 50.0 mg/kg/injection, schedule: Q01DX005 (ip), vehicle: Klucel (hydroxypropylcellulose) (HPC)
[5] = dose: 200.0 mg/kg/injection, schedule: Q04DX002 (ip), vehicle: Klucel (hydroxypropylcellulose) (HPC)
[6] = dose: 400.0 mg/kg/injection, schedule: Q04DX002 (ip), vehicle: Klucel (hydroxypropylcellulose) (HPC)
[7] = dose: 200.0 mg/kg/injection, schedule: Q01DX005 (ip), vehicle: saline with Tween-80
[8] = dose: 200.0 mg/kg/injection, schedule: Q04DX002 (ip), vehicle: saline with Tween-80
[9] = dose: 400.0 mg/kg/injection, schedule: Q04DX002 (ip), vehicle: saline with Tween-80
[10] = dose: 400.0 mg/kg/injection, schedule: Q04DX002 (ip), vehicle: saline

`COC(=O)C(C)NP(=O)(N1CC1)N1CC1` (stereo not given) was tested, and the T/C (dose: 3.75 mg/kg/injection, schedule: Q01DX005 (ip), vehicle: saline with Tween-80) was 141 % of control, the T/C (dose: 3.75 mg/kg/injection, schedule: Q01DX005 (ip), vehicle: saline) was 144 % of control and the T/C (dose: 7.5 mg/kg/injection, schedule: Q01DX005 (ip), vehicle: saline with Tween-80) was 128 % of control. The survivor count (dose: 60.0 mg/kg/injection, schedule: Q01DX005 (ip), vehicle: saline) was 2 of 6, the survivor count (dose: 120.0 mg/kg/injection, schedule: Q01DX005 (ip), vehicle: saline) was 0 of 6 and the survivor count (dose: 240.0 mg/kg/injection, schedule: Q01DX005 (ip), vehicle: saline) was 0 of 6.

In the case of `CC(=O)NCc1cc(C)c(CC#N)cc1CC#N`, the survivor count (dose: 25.0 mg/kg/injection, schedule: Q01DX009 (ip), vehicle: distilled water + Tween-80) is reported as 6 of 6, the T/C (dose: 50.0 mg/kg/injection, schedule: Q01DX009 (ip), vehicle: distilled water + Tween-80) is reported as 126 % of control and the survivor count (dose: 100.0 mg/kg/injection, schedule: Q01DX009 (ip), vehicle: distilled water + Tween-80) is reported as 3 of 6. The survivor count (dose: 200.0 mg/kg/injection, schedule: Q01DX009 (ip), vehicle: distilled water + Tween-80) was 0 of 6.

For `CCC[CH2][Sn]([CH2]CCC)([S]/C(C#N)=N/N=C/c1ccc(N(C)C)cc1)[S]/C(C#N)=N/N=C/c1ccc(N(C)C)cc1`, the survivor count (dose: 15.0 mg/kg/injection, schedule: Q01DX005 (ip), vehicle: saline with Tween-80) was 4 of 6, the survivor count (dose: 30.0 mg/kg/injection, schedule: Q01DX005 (ip), vehicle: saline with Tween-80) was 0 of 6 and the survivor count (dose: 60.0 mg/kg/injection, schedule: Q01DX005 (ip), vehicle: saline with Tween-80) was 2 of 6. For the same molecule, the survivor count (dose: 120.0 mg/kg/injection, schedule: Q01DX005 (ip), vehicle: saline with Tween-80) was 0 of 6 and the survivor count [1] was 0 of 6.

`CC1CCC(C#N)C1=N` (stereo not given) was tested, and the survivor count (dose: 100.0 mg/kg/injection, schedule: Q01DX001 (ip), vehicle: saline with Tween-80) was 0 of 6, the survivor count (dose: 200.0 mg/kg/injection, schedule: Q01DX001 (ip), vehicle: saline with Tween-80) was 0 of 6 and the survivor count (dose: 400.0 mg/kg/injection, schedule: Q01DX001 (ip), vehicle: saline with Tween-80) was 0 of 6.

`C=C(C)/C([O-])=N/[N+](C)(C)CC(O)CCCCCCCCCCCC` (stereo not given) was tested, and the survivor count (dose: 5.0 mg/kg/injection, schedule: Q01DX009 (ip), vehicle: Klucel (hydroxypropylcellulose) (HPC)) was 6 of 6.

For `O=C1/C(=N\O)Cc2cc(Cl)ccc21`, the survivor count [2] was 3 of 5 and the survivor count [3] was 3 of 5.

In the case of `CC1=CC(=NN=c2cc(C)n([O-])c(C)c2)C=C(C)[N+]1=O`, the T/C (dose: 50.0 mg/kg/injection, schedule: Q01DX009 (ip), vehicle: saline) is reported as 127 % of control and the T/C (dose: 100.0 mg/kg/injection, schedule: Q01DX009 (ip), vehicle: saline) is reported as 131 % of control.

For `CN(C)C(=O)c1cccc2ccc[n+](C)c12`, the survivor count (dose: 0.62 mg/kg/injection, schedule: Q04DX002 (ip), vehicle: saline) was 6 of 6, the survivor count (dose: 1.25 mg/kg/injection, schedule: Q04DX002 (ip), vehicle: saline) was 2 of 6 and the survivor count (dose: 2.5 mg/kg/injection, schedule: Q04DX002 (ip), vehicle: saline) was 0 of 6. The survivor count (dose: 12.5 mg/kg/injection, schedule: Q04DX002 (ip), vehicle: saline) was 0 of 6, the survivor count (dose: 25.0 mg/kg/injection, schedule: Q04DX002 (ip), vehicle: saline) was 0 of 6 and the survivor count (dose: 50.0 mg/kg/injection, schedule: Q04DX002 (ip), vehicle: saline) was 0 of 6.

In the case of `CC/C(=C(/CC)c1ccc(OCC(=O)N/N=C2/C=C3CCC4C(CCC5(C)C(O)CCC45)C3(C)CC2)cc1)c1ccc(OCC(=O)N/N=C2\C=C3CCC4C(CCC5(C)C(O)CCC45)C3(C)CC2)cc1` (stereo not given), the survivor count (dose: 200.0 mg/kg/injection, schedule: Q01DX001 (ip), vehicle: Klucel (hydroxypropylcellulose) (HPC)) is reported as 6 of 6.

In the case of `CN1C(=O)N(C)C(=O)C(Cl)(Cl)C1=O`, the survivor count [4] is reported as 5 of 6, the survivor count [2] is reported as 0 of 6 and the survivor count [3] is reported as 0 of 6.

With `O=c1oc(-c2ccc(Cl)c([N+](=O)[O-])c2)ns1` the survivor count (dose: 400.0 mg/kg/injection, schedule: Q01DX009 (ip), vehicle: Klucel (hydroxypropylcellulose) (HPC)) was 3 of 6.

For `Clc1nc(C(Cl)Cl)nc2ccccc12`, the survivor count [1] was 5 of 6.

In the case of `CCSc1nc2c(N)nc(N)nc2[nH]c1=O`, the survivor count (dose: 400.0 mg/kg/injection, schedule: Q04DX003 (ip), vehicle: Klucel (hydroxypropylcellulose) (HPC)) is reported as 0 of 6.

With `C[C@H]1C(=O)CCC2[C@]3(C)CC4OC(=O)C5(CC[C@@]6(C)CCC(C)(C)CC6C45C)C3CC[C@@]21C` (stereo not given in full) the survivor count (dose: 16.5 mg/kg/injection, schedule: Q01DX005 (ip), vehicle: Klucel (hydroxypropylcellulose) (HPC)) was 6 of 6, the survivor count (dose: 33.0 mg/kg/injection, schedule: Q01DX005 (ip), vehicle: Klucel (hydroxypropylcellulose) (HPC)) was 6 of 6 and the survivor count (dose: 66.0 mg/kg/injection, schedule: Q01DX005 (ip), vehicle: Klucel (hydroxypropylcellulose) (HPC)) was 6 of 6.

`CC(/C=C/c1ccccc1)=N\NC(=S)Nc1ccc(Br)cc1` was tested, and the survivor count [5] was 6 of 6 and the survivor count [6] was 6 of 6.

For `COc1cc2c(cc1O)Cc1c-2[n+](C)cc2cc(OC)c(OC)cc12`, the T/C (dose: 12.5 mg/kg/injection, schedule: Q01DX005 (ip), vehicle: Klucel (hydroxypropylcellulose) (HPC)) was 130 % of control, the T/C (dose: 25.0 mg/kg/injection, schedule: Q01DX005 (ip), vehicle: Klucel (hydroxypropylcellulose) (HPC)) was 138 % of control and the T/C [4] was 132 and 149 % of control. For the same molecule, the T/C (dose: 50.0 mg/kg/injection, schedule: Q04DX002 (ip), vehicle: Klucel (hydroxypropylcellulose) (HPC)) was 125 % of control, the T/C [2] was 128 % of control and the T/C (dose: 100.0 mg/kg/injection, schedule: Q04DX002 (ip), vehicle: Klucel (hydroxypropylcellulose) (HPC)) was 137 % of control. The T/C [5] was 145 % of control, the survivor count [5] was 0 of 6 and the survivor count [6] was 0 of 5.

With `CC(C)COP(=O)(OCC(C)C)OCC(C)C` the survivor count (dose: 100.0 mg/kg/injection, schedule: Q01DX009 (ip), vehicle: saline with Tween-80) was 3 of 6.

For `FC(F)(F)c1ccc2nc(Cl)[nH]c2c1`, the survivor count [7] was 0 of 6.

For `OC1(c2ccncc2)C=CCC1` (stereo not given), the survivor count [8] was 5 of 6 and the survivor count [9] was 0 of 6.

In the case of `CCCCCCCCCC1=C(C#N)C(=O)OCCN1C`, the survivor count [1] is reported as 6 of 6.

With `O=C(ON1C(=O)CCC1=O)C1CCC(CN2C(=O)C=CC2=O)CC1` (stereo not given) the survivor count [8] was 1 of 5 and the survivor count [9] was 0 of 5.

For `Cc1nn(C(=O)c2cccnc2)c(-c2ccccc2)c1N=Nc1ccc(S(=O)(=O)N=C(N)N)cc1`, the survivor count (dose: 25.0 mg/kg/injection, schedule: Q01DX005 (ip), vehicle: saline with Tween-80) was 6 of 6, the survivor count (dose: 50.0 mg/kg/injection, schedule: Q01DX005 (ip), vehicle: saline with Tween-80) was 6 of 6 and the survivor count (dose: 100.0 mg/kg/injection, schedule: Q01DX005 (ip), vehicle: saline with Tween-80) was 6 of 6. For the same molecule, the survivor count [7] was 6 of 6.

`COc1ccc(Cc2c3cc(OC)c(OC)cc3cc[n+]2CC(=O)c2ccc(Cl)cc2)cc1OC` was tested, and the survivor count [3] was 0 of 5.

`N=C(N)c1ccc2nc(/C=C\c3nc4ccc(C(=N)N)cc4[nH]3)[nH]c2c1` was tested, and the T/C [10] was 125 % of control.

With `O=C(c1ccccc1)N1OC12CCCCC2` the survivor count [3] was 3 of 6.

For `Cc1ccc(C[n+]2cc3ccccc3cc2/C=N\O)cc1`, the survivor count [7] was 0 of 6.

In the case of `CC(/C=N\Nc1ccc(Cl)cc1)=N/NC(N)=S`, the survivor count [10] is reported as 0 of 6.

For `O=C1CC2C1C1C=CC2n2c(=O)n(-c3ccccc3)c(=O)n21` (stereo not given), the survivor count (dose: 100.0 mg/kg/injection, schedule: Q04DX002 (ip), vehicle: saline with Tween-80) was 6 of 6, the survivor count [8] was 3 of 6 and the survivor count [9] was 2 of 6.

`CCOc1c(N=Nc2ccc(Br)cc2)c(C)nn1C(=S)S` was tested, and the survivor count (dose: 240.0 mg/kg/injection, schedule: Q01DX005 (ip), vehicle: Klucel (hydroxypropylcellulose) (HPC)) was 6 of 6.
